# Screen size: about 580,000 compounds; about 6,100 (1.1%) were called active. This list was built around the results that the source calls inconclusive (neither active nor inactive); the mix of calls is not that of the screen. The call rests on the fitted dose curve; in most records, active means well fitted inhibition curve with a large enough effect; inconclusive means small, poorly fitted or top-dose-only effect, or another doubt; inactive means no such curve, though single readings can be large or run the other way. A potency beside an inconclusive call is a rough fit, not a confirmed value.
# Amino acid sequences for entries named in this document (tags omitted). A change or cut given only in a name is not applied to a line headed by its entry.
# UniProt P18054: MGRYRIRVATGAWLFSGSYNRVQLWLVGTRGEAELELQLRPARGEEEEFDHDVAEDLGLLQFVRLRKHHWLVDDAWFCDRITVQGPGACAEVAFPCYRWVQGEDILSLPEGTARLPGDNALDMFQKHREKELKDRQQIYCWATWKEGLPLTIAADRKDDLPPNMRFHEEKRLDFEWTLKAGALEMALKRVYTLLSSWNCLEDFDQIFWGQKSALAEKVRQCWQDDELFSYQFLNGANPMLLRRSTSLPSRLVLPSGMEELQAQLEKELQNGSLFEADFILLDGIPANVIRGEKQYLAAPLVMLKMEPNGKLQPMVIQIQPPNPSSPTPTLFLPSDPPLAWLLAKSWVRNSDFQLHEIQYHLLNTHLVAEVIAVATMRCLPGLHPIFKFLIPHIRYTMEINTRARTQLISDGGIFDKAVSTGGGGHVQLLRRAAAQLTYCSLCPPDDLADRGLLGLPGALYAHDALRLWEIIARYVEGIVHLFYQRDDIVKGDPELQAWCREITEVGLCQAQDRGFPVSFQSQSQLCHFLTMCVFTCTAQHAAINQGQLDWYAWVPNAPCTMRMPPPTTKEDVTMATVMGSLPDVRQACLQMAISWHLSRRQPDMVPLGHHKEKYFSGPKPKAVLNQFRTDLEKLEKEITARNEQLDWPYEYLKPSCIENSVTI
# Target: Polyunsaturated fatty acid lipoxygenase ALOX12 (Homo sapiens) (UniProt P18054)
# Test: Primary qHTS assay for inhibitors of human arachidonate 12S-lipoxygenase (ALOX12): Round 2
# Conditions: purified 12hLO, xylenol orange hydroperoxide absorbance; series mostly up to 108 µM
# In short: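 Purified human 12hLO (150 nM final) in 25 mM Hepes, 0.01% Triton X-100, pH 7.0 was preincubated 15 min at room temperature with compound. Then 40 uM arachidonic acid was added, 30 min. Hydroperoxide was read by Fe-XO absorbance ratio 573/405 nm.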
# Potency means the concentration at half of the fitted maximal effect.
row,Structure (SMILES),Potency
1,CC1CCc2sc(C(=O)N/N=C/c3ccc(O)cc3)cc2C1 (stereo not drawn),active: 28.2 µM
2,CCc1ccc(OCC(=O)NNC(=S)NC(=O)C2CC2)c(Br)c1,"inconclusive: 39.8 µM [inhibitor, partial curve, poor fit]"
3,O=C(C1CC1)N(C1CCOCC1)C1CCN(S(=O)(=O)c2ccc(F)c(Cl)c2)CC1,inactive
4,Cc1ccc(-c2c(C(=O)N/N=C/c3sccc3C)nnn2-c2nonc2N)cc1,inactive
5,Cc1cc(C)cc(N2C(=O)CS(=O)(=O)C23C(=O)N(Cc2ccc(F)cc2)c2ccc(C)cc23)c1 (stereo not drawn),"inconclusive: 56.2 µM [inhibitor, partial curve, poor fit]"
6,O=C(O)c1ccc(-c2ncc3cnc(C4=CCOCC4)cn23)cc1,"inconclusive: 39.8 µM [inhibitor, full curve]"
7,S=c1nc[nH]c2c1ncn2C1CCCC1,"inconclusive: 4.47 µM [inhibitor, full curve]"
8,Cc1ccc(S(=O)(=O)N2CCC(C(=O)NCC3CCCCC3)CC2)cc1,"inconclusive: 89.1 µM [inhibitor, partial curve, poor fit]"
9,Clc1cccc(-c2cc3nc4c(c(NCc5ccco5)n3n2)CCCC4)c1,inactive
10,N#CC1=C(N)OC2=C(C(=O)CC(c3cccc(Cl)c3)C2)C1c1ccc(Cl)cc1 (stereo not drawn),"inconclusive: 20 µM [inhibitor, partial curve, poor fit]"
11,c1cc2c(cc1Nc1nc(CN3CCOCC3)nc3sc4c(c13)CCCC4)CCC2,inactive
12,O=C(c1ccoc1)N1CCC(N2C(=O)C(O)C23CCCCC3)CC1 (stereo not drawn),inactive
13,COc1cccc(NC(=O)[C@H](C)n2c(=O)[nH]c3ccccc3c2=O)c1,inactive
14,O=C(Cn1nc(-c2cccs2)ccc1=O)Nc1ccc(Br)cc1,inactive
15,Cc1ccc(C)c(NC(=S)NNc2ccc(F)cc2F)c1,"inconclusive: 50.1 µM [inhibitor, partial curve, poor fit]"
16,c1ccc(Nc2c(-c3c[nH]c4ccccc34)nc3ccccn23)cc1,inactive
17,O=C1C(=O)c2c(C(=O)c3ccccc3)coc2-c2ccccc21,"inconclusive: 50.1 µM [inhibitor, partial curve, poor fit]"
18,COc1ccc(/C=N/NC(=O)c2ccc(N(C)S(=O)(=O)c3ccccc3)cc2)c(OC)c1,inactive
19,CCc1ccccc1NC(=O)CCl,"inconclusive: 35.5 µM [inhibitor, partial curve, poor fit]"
20,Cc1ccc(F)cc1C(=O)N1CCCC(c2cc(C(=O)Nc3ccccc3)no2)C1 (stereo not drawn),"inconclusive: 28.2 µM [inhibitor, full curve, poor fit]"
21,COc1cccc(C(=O)N2CCC[C@H]2c2nc(-c3ccccc3Cl)no2)c1,"inconclusive: 22.4 µM [inhibitor, full curve, poor fit]"
22,Cc1ccc(/C=N/n2c(-c3ccc(Cl)cc3)n[nH]c2=S)o1,"inconclusive: 70.8 µM [inhibitor, partial curve, poor fit]"
23,O=C1CC2CC1C(C(=O)O)C2C(=O)O (stereo not drawn),"inconclusive: 44.7 µM [inhibitor, partial curve, poor fit]"

row,Structure (SMILES),Potency
1,CCCCC[C@@H]1C=C(C(=O)O)[C@H](c2ccc(OC)c(OC)c2)N1S(=O)(=O)c1ccc(C)cc1,"inconclusive: 89.1 µM [inhibitor, partial curve, poor fit]"
2,CCOC(=O)N1CCN(C(=O)CN(c2cccc(OC)c2)S(=O)(=O)c2ccc(C)cc2)CC1,inactive
3,OC[C@H]1O[C@@H](n2cnc3c(NCc4ccco4)ncnc32)[C@H](O)[C@@H]1O,inactive
4,O=C(CC(c1ccccc1)c1ccccc1)Nc1ccc(Cl)cn1,inactive
5,Cc1ccc2nc(N3CCC(C(=O)N4CCN(c5cccc(Cl)c5)CC4)CC3)[nH]c2c1,inactive
6,CCCc1ccc(C(=O)NCc2ccco2)cc1,"inconclusive: 126 µM [inhibitor, single point]"
7,Cc1ccccc1-c1noc(-c2ccc(O)cc2)n1,"inconclusive: 79.4 µM [inhibitor, partial curve, poor fit]"
8,COC(=O)C1(O)CC(c2ccccc2)C(C(=O)c2ccccc2)N1c1ccc(F)cc1 (stereo not drawn),"inconclusive: 89.1 µM [inhibitor, single point]"
9,CC(=O)N/C(=C\c1ccccc1Cl)C(=O)O,"inconclusive: 25.1 µM [inhibitor, single point]"
10,CCOc1ccc2nc(N/C(N)=N/C(=S)Nc3ccc(OC)cc3)nc(C)c2c1,"inconclusive: 10 µM [inhibitor, full curve, poor fit]"
11,Cc1cc(C)nc(NC(=O)C(c2ccccc2)c2ccccc2)c1,inactive
12,OC(c1ccccc1)(c1ccccc1)C1CCN(C(=S)Nc2ccc(F)cc2)CC1,"inconclusive: 56.2 µM [inhibitor, partial curve, poor fit]"
13,CCN(CC)CCCNC(=O)c1ccc(S(=O)(=O)Nc2ccc(C)c(C)c2)cc1,"inconclusive: 11.2 µM [inhibitor, full curve, poor fit]"
14,CCOC(=O)c1c(C)[nH]c(CCC(=O)Nc2ccc(C)c(F)c2)c1C,"inconclusive: 141 µM [inhibitor, partial curve, poor fit]"
15,Cc1ccccc1NC(=O)COc1ccc(Br)cc1CNCCCO,inactive
16,CCCn1c2c(c(=N)c3c1CCC3)CCCC2,"inconclusive: 79.4 µM [inhibitor, partial curve, poor fit]"
17,O=c1cc(-c2ccc(O)c(-c3c(O)cc(O)c4c(=O)cc(-c5ccc(O)cc5)oc34)c2)oc2cc(O)cc(O)c12,"inconclusive: 28.2 µM [inhibitor, partial curve]"
18,CN1C(=O)Cc2cc(-c3csc(NC(C)(C)C)n3)ccc21,active: 11.2 µM
19,O=C(CN1CCN(Cc2ccccc2)CC1)Nc1ccc(F)c(F)c1,"inconclusive: 0.316 µM [inhibitor, full curve, poor fit]"
20,CCOP(=O)(c1ccccc1)c1nc(-c2ccccc2C)oc1N1CCCCC1 (stereo not drawn),"inconclusive: 126 µM [inhibitor, single point]"
21,COc1ccc2c(c1OC)C(=O)OC2Nn1cncn1 (stereo not drawn),"inconclusive: 44.7 µM [inhibitor, partial curve, poor fit]"
22,COC(=O)C(C)Oc1ccc2c(=O)c(-c3ccccc3OC)c(C(F)(F)F)oc2c1 (stereo not drawn),inactive
23,NC(=O)CSc1ccc(S(=O)(=O)N2CCCCC2)cn1,"inconclusive: 100 µM [inhibitor, single point]"

# Five of the compounds above, bar-delimited:
row | Structure (SMILES) | Potency
7 | S=c1nc[nH]c2c1ncn2C1CCCC1 | inconclusive: 4.47 µM [inhibitor, full curve]
8 | Cc1ccc(S(=O)(=O)N2CCC(C(=O)NCC3CCCCC3)CC2)cc1 | inconclusive: 89.1 µM [inhibitor, partial curve, poor fit]
9 | Clc1cccc(-c2cc3nc4c(c(NCc5ccco5)n3n2)CCCC4)c1 | inactive
10 | N#CC1=C(N)OC2=C(C(=O)CC(c3cccc(Cl)c3)C2)C1c1ccc(Cl)cc1 (stereo not drawn) | inconclusive: 20 µM [inhibitor, partial curve, poor fit]
11 | c1cc2c(cc1Nc1nc(CN3CCOCC3)nc3sc4c(c13)CCCC4)CCC2 | inactive

# Remaining list, next part:

row,Structure (SMILES),Potency
1,Cc1nc(NCCNS(C)(=O)=O)cc(C2CC(O)C2)n1 (stereo not drawn),inactive
2,CCOC(=O)c1ccc2c(c1)[n+](CC)c(C)n2-c1ccccc1,"inconclusive: 44.7 µM [inhibitor, partial curve, poor fit]"
3,Cc1ccc(N2C(=O)c3ccccc3C2C(=O)c2ccc(O)cc2O)cc1 (stereo not drawn),"inconclusive: 31.6 µM [inhibitor, partial curve, poor fit]"
4,COCCN1C(=O)c2ccccc2C(C(=O)Nc2nc(C)c(C)s2)C12CCCCC2 (stereo not drawn),inactive
5,CCN(CC)S(=O)(=O)c1ccc(=O)n(Cc2noc(C)n2)c1,inactive
6,O=C(CSC1=NCCS1)NCc1ccco1,inactive
7,Cc1ccccc1Oc1ccc(-c2nc(N)nc(N)n2)cc1,"inconclusive: 79.4 µM [inhibitor, single point]"
8,CCCC[C@@H]1CNC(=O)C(=O)N1CCCC,"inconclusive: 28.2 µM [inhibitor, full curve, poor fit]"
9,O=C(c1ccc(N2CCN(C(=O)c3ccc(F)c(F)c3)CC2)cc1)c1cccc(F)c1,"inconclusive: 3.55 µM [inhibitor, single point]"
10,CC(=O)Nc1ccc2nc(NC(=O)COc3ccccc3C)sc2c1,inactive
11,CCC(=O)Nc1ccccc1-c1nc2ccccc2n(CC(=O)Nc2ccccc2)c1=O,"inconclusive: 25.1 µM [inhibitor, partial curve, poor fit]"
12,Cc1cc(C)n(CCc2nc(-c3ccc(-c4ccccc4)cc3)cs2)n1,"inconclusive: 56.2 µM [inhibitor, single point]"
13,O=C(O)C(Cc1c[nH]c2ccccc12)NCc1ccccc1F (stereo not drawn),inactive
14,Cc1ccc(-n2ncc(C(=O)NCc3cccs3)c2C2CCN(C(=O)OC(C)(C)C)CC2)c(C)c1,"inconclusive: 63.1 µM [inhibitor, partial curve, poor fit]"
15,Cc1c(NC(=O)Nc2cccs2)cccc1[N+](=O)[O-],"inconclusive: 50.1 µM [inhibitor, partial curve, poor fit]"
16,COc1ccc(NC(=O)C2=C(C)Nc3nc(SCc4ccccc4C)nn3C2c2cc(OC)c(O)c(OC)c2)cc1 (stereo not drawn),"inconclusive: 158 µM [inhibitor, single point]"
17,COc1ccc(-c2n[nH]c(=S)o2)c(OC)c1,"inconclusive: 89.1 µM [inhibitor, partial curve, poor fit]"
18,COc1ccc(COC(=O)C2=C(C)NC3=C(C(=O)CCC3)C2c2cccc(OC)c2OC)cc1 (stereo not drawn),"inconclusive: 44.7 µM [inhibitor, single point]"
19,CC12CC3(C)CC(C)(C1)CC(C(=O)NC(=S)N1CCCC1)(C2)C3,"inconclusive: 7.94 µM [inhibitor, full curve, poor fit]"
20,COc1ccc(OC)c(NC(=O)CSc2nnc3ccc4ccccc4n23)c1,inactive
21,O=C(NCc1ccccc1Cl)c1ccc(CSCc2ccccc2Cl)o1,"inconclusive: 50.1 µM [inhibitor, full curve, poor fit]"
22,Cc1ccc(-c2c(C)n([O-])c3c([n+]2=O)CCCCC3)o1,"inconclusive: 56.2 µM [inhibitor, partial curve, poor fit]"

# — PubChem BioAssay AID1671190 (National Center for Advancing Translational Sciences (NCATS), 2021)
